This is one part of the list. Shown are side measurements of this screen, not its main read-out; they come without a call. The list favours compounds with an active or inconclusive main result. Potencies come from curve fits of mixed quality, noted in brackets.
Experiment: qHTS Assay for Lipid Storage Modulators in Drosophila S3 Cells;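 for cell number change: cells counted by Cell Tracker Red CMTPX staining in the red channel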
Conditions: BODIPY lipid droplet fluorescence, 18-24 h; for cell number change: measured here: cell count max response, cells fed with added oleic acid
Outline: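 Drosophila S3 cells got compounds at several concentrations plus oleic acid (400 uM solution). Laser-scanning cytometry with 488 nm excitation read lipid droplets at 500-530 nm and cells at 575-640 nm. Percent activity was relative to 20 uM Triacsin C.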

[1] = measured here: lipid fluorescence (Fed channel) AC50, cells fed with added oleic acid
[2] = measured here: cell number channel AC50, cells fed with added oleic acid

SMILES	cell number change [%]	AC50 [1]	AC50 [2]
N#C/C(=C/c1ccc(-c2ccccc2[N+](=O)[O-])o1)C(N)=O	-5.41	–	–
CCOC(=O)N1CCN(C(=O)Cn2cc3c(n2)CCCC3)CC1	-3.92	–	–
CCn1c(C)cc(C(=O)CSc2nnc(-c3ccco3)o2)c1C	6.47	0.00461 µM [rising, full curve, poor fit]	–
O=C(O)c1ccc(N2C(=O)c3cccc4c(C(=O)O)ccc(c34)C2=O)cc1	-28.7	0.731 µM [falling, full curve, poor fit]	0.82 µM [falling, full curve, poor fit]
COc1cc(COCC(O)CN2CCN(Cc3ccc4c(c3)OCO4)CC2)cc(OC)c1OC (stereo not drawn)	–	–	0.146 µM [rising, single point]
Cc1cccc(NC(=O)NNC(=O)COc2ccc(Cl)cc2)c1	10.5	–	–
Cc1ccc(S(=O)(=O)N(C)C)cc1NC(=S)Nc1cccc2ccccc12	21.4	29.1 µM [rising, single point]	–
Nc1cccc(N2C(=O)c3cccc4c(N)ccc(c34)C2=O)c1	-78.4	29.1 µM [falling, single point]	29.1 µM [falling, single point]
CC1Cc2ccccc2N1C(=O)CN1CCN(S(=O)(=O)c2cccs2)CC1 (stereo not drawn)	3.8	–	–
COc1ccc(CCNC(=O)Cn2nnc(-c3ccc(OC)c(OC)c3)n2)cc1OC	-40.5	13 µM [falling, partial curve]	9.2 µM [falling, partial curve]
Cn1c(CSCc2ccc(F)cc2)nnc1SCC(=O)N1CCN(c2ccccc2)CC1	-42.9	18.4 µM [falling, partial curve]	16.4 µM [falling, partial curve]
C/C(=N\NC(=O)C1(C)CC1(Br)Br)c1ccc([N+](=O)[O-])cc1 (stereo not drawn)	-10.5	0.326 µM [rising, single point]	–
CCN1CCN(S(=O)(=O)c2ccc(Cl)c(C(=O)N(C)CCOc3ccc(Cl)cc3)c2)CC1	1.72	6.51 µM [rising, single point]	–
Cc1ccc(S(=O)(=O)Nc2nc(C)c(C(=O)NNS(=O)(=O)c3cc(C)ccc3C)s2)cc1	-14.6	29.1 µM [rising, single point]	–
CCOc1ccc(S(=O)(=O)N2CCC(C(=O)NCc3cccnc3)CC2)cc1Cl	-10.5	5.62 µM [falling, single point]	–
Nc1cccc(-c2cc(-c3ccccc3)nc(-c3cccc(N)c3)n2)c1	1.5	0.0731 µM [rising, full curve, poor fit]	–
Cn1c(SCC(=O)Nc2ccc3c(c2)OCO3)nnc1-c1cnccn1	–	0.092 µM [rising, full curve, poor fit]	–
COc1ccc(OCC(=O)Nc2ccccc2N2CCCCC2)cc1	34.1	–	29.1 µM [rising, single point]
CNc1ccccc1NC(=O)C1CCCN1C(=O)OCc1ccccc1 (stereo not drawn)	36.6	29.1 µM [rising, single point]	–
COc1ccccc1Oc1nnnn1-c1ccc(C(N)=O)cc1	–	6.51 µM [rising, single point]	–

SMILES	cell number change [%]	AC50 [1]	AC50 [2]
CCOc1ccc(S(=O)(=O)N2CCN(C(=O)CN3C(=O)NC(C)(C)C3=O)CC2)cc1	17.9	29.1 µM [rising, single point]	–
Cc1ccc(S(=O)(=O)N2CCN(C(=O)COC(=O)c3c(C)noc3C)CC2)c(C)c1	0.334	0.184 µM [falling, full curve, poor fit]	–
Cc1ccc(NC(=O)COC(=O)CCC(=O)c2cccs2)c(Br)c1	-0.903	0.0259 µM [rising, full curve, poor fit]	–
COc1cccc(CNC(=O)c2ccc3c(c2)N(C)CCS3)c1OC	7.78	9.2 µM [falling, partial curve]	–
CCC(CC)NC(=O)C1CCN(c2ccc(S(=O)(=O)N3CCOCC3)cc2[N+](=O)[O-])CC1	-21.4	0.00411 µM [rising, full curve, poor fit]	–
O=C(N/N=C\c1ccc([N+](=O)[O-])o1)C1COc2ccccc2O1 (stereo not drawn)	-52.6	3.26 µM [falling, full curve]	6.51 µM [falling, partial curve]
CCOc1ccccc1OCC(=O)Nc1cccc(S(=O)(=O)NC2=NCCCCC2)c1	21.9	29.1 µM [rising, single point]	–
O=C(O)/C(=C\c1ccc(Cl)c([N+](=O)[O-])c1)c1ccc(S(=O)(=O)N2CCCC2)s1	28.2	13 µM [rising, partial curve, poor fit]	–
C#CCSc1n[nH]c(-c2ccco2)n1	-1.59	0.517 µM [falling, single point]	–
CCCc1nc2c(ccc3ccccc32)cc1CC	4.17	–	0.103 µM [rising, partial curve, poor fit]
Cc1ccc(Cn2c(N3CCNCC3)nc3c2c(=O)[nH]c(=O)n3C)cc1	40.7	–	7.31 µM [rising, partial curve, poor fit]
CCN1C(=O)c2ccccc2S(=O)c2ccc(C(=O)N3CCN(C(=O)c4ccco4)CC3)cc21 (stereo not drawn)	4.39	18.4 µM [rising, partial curve, poor fit]	–
COC(=O)c1ccc(Cl)cc1N(Cc1c(F)cccc1Cl)S(C)(=O)=O	1.06	29.1 µM [falling, single point]	–
O=C(Nc1ccc(N2CCCCCC2)cc1)c1cccc(S(=O)(=O)N2CCOCC2)c1	-22.2	29.1 µM [falling, single point]	–
O=c1[nH]c2cccc(Cl)c2n(CCNc2ncc(C(F)(F)F)cc2Cl)c1=O	-55.1	–	16.4 µM [falling, single point]
Cc1ccc(-n2c(SCC(=O)Nc3nccs3)nc3c(c2=O)SCC3)cc1	3.37	1.64 µM [rising, partial curve]	–
Cc1c(C(=O)NCCCN2CCOCC2)sc2ncnc(N3CCN(c4ccccc4)CC3)c12	-2.03	0.461 µM [rising, partial curve, poor fit]	–
CCn1cc(Cl)c(C(=O)Nc2cccc(CN3CCOCC3)c2)n1	-0.567	29.1 µM [falling, single point]	–
Cc1ccc(S(=O)(=O)NCc2ccco2)cc1C	–	0.00461 µM [falling, full curve, poor fit]	–
CCOC(=O)c1ccc(NCn2c(=O)oc3ccccc32)cc1	34.4	–	16.4 µM [rising, single point]

Molecules shown so far that contain an aryl methoxy group (5):
SMILES	cell number change [%]	AC50 [1]	AC50 [2]
COc1cc(COCC(O)CN2CCN(Cc3ccc4c(c3)OCO4)CC2)cc(OC)c1OC (stereo not drawn)	–	–	0.146 µM [rising, single point]
COc1ccc(CCNC(=O)Cn2nnc(-c3ccc(OC)c(OC)c3)n2)cc1OC	-40.5	13 µM [falling, partial curve]	9.2 µM [falling, partial curve]
COc1ccc(OCC(=O)Nc2ccccc2N2CCCCC2)cc1	34.1	–	29.1 µM [rising, single point]
COc1ccccc1Oc1nnnn1-c1ccc(C(N)=O)cc1	–	6.51 µM [rising, single point]	–
COc1cccc(CNC(=O)c2ccc3c(c2)N(C)CCS3)c1OC	7.78	9.2 µM [falling, partial curve]	–

Following part.

SMILES	cell number change [%]	AC50 [1]	AC50 [2]
CC(=O)N1CCc2cc(S(=O)(=O)NC(CC(C)C)C(=O)Nc3cc(C(=O)O)ccc3C)ccc21 (stereo not drawn)	-107	5.8 µM [falling, full curve]	23.1 µM [falling, partial curve]
COc1ccc(/C(N)=N/OC(=O)N2CCOCC2)cc1	2.27	1.03 µM [falling, full curve]	–
CCCCn1c(N)c(N(CCC(C)C)C(=O)c2ccc3c(c2)OCCO3)c(=O)[nH]c1=O	-15.2	1.84 µM [rising, full curve, poor fit]	–
O=C(Cn1cnc2ccccc2c1=O)N1CCN(S(=O)(=O)c2ccc(F)cc2)CC1	4.01	2.06 µM [rising, single point]	2.06 µM [rising, single point]
Cc1ccc(S(=O)(=O)N2CCCCC2CCNC(=O)C(=O)NCCc2ccco2)cc1 (stereo not drawn)	17.1	0.184 µM [falling, full curve, poor fit]	–
NC(=O)NC(=O)CSc1nnc(-c2ccco2)n1Cc1ccccc1	–	29.1 µM [rising, single point]	–
CCOc1ccc(N2CC(C(=O)Nc3ccccn3)CC2=O)cc1 (stereo not drawn)	11	–	–
COc1ccc(C(=O)N2CCN(S(=O)(=O)c3cc(Cl)ccc3OC)CC2)cc1	–	6.51 µM [rising, single point]	4.61 µM [rising, single point]
COc1ccc(O)c(/C=C(\C#N)C(=O)Nc2cccnc2)c1	8.08	0.291 µM [falling, partial curve]	0.184 µM [falling, full curve, poor fit]
COc1ccc(C2CC(c3ccccc3)=NN2C(=O)COC(=O)c2cnc(Cl)c(Cl)c2)cc1 (stereo not drawn)	-48.9	29.1 µM [falling, single point]	4.61 µM [falling, full curve]
C=COC(=O)CSc1nc(-c2cccs2)ccc1C#N	-22.2	6.51 µM [rising, partial curve, poor fit]	–
O=C(C1CCN(S(=O)(=O)c2cnc[nH]2)CC1)N(CCc1ccccc1)Cc1ccccc1	-13	–	–
Cc1ccc(CC(=O)NC(C)CCc2ccccc2)cc1 (stereo not drawn)	-10.3	–	–
Cc1[nH]c2ccc(C(=O)NCc3ccccn3)cc2c1C	2.45	–	–
O=C(c1ccccc1NS(=O)(=O)c1ccccc1)N1CCCCCC1	6.2	29.1 µM [rising, single point]	–
O=C(Nc1ccccc1C(=O)O)c1ccc(NC(=O)C2CCCCC2)cc1	19.1	20 µM [rising, single point]	–
CC(C)C[C@H](N)c1nnc(S(=O)(=O)Cc2cccc(F)c2)o1	-88.6	29.1 µM [falling, single point]	16.4 µM [falling, partial curve, poor fit]
O=C(CSc1cccc(C(F)(F)F)c1)N1CCN(S(=O)(=O)c2ccccc2)CC1	16.2	–	1.64 µM [rising, partial curve, poor fit]

— PubChem BioAssay AID2685 (National Center for Advancing Translational Sciences (NCATS), 2010)
